Where a chain is given by its changes, count along the chain named. Like-named read-outs stand apart in the source and are kept apart here. No constants are given. Whether binding was seen depends on the method and setting. Binding seen in cells or lysates may run through a third protein. Some results given as binding are weak or reduced against the parent protein; the word gives no strength. For some assays here: Sequences can lack the tags named with a protein.
How the values were obtained:
[1] = molecular target: Kif5b, the heavy chain of kinesin-1 (endogenous) (mouse (endogenous in mouse brain)) (UniProt Q61768); test: co-IP
[2] = molecular target: GluN1 NMDAR subunit (endogenous) (mouse (endogenous in mouse brain)) (UniProt P35438); test: co-IP
[3] = molecular target: Kif5b, the heavy chain of kinesin-1 (endogenous) (mouse (endogenous in mouse brain)) (UniProt Q61768); test: co-IP; remark: listed apart in the source
[4] = molecular target: GST-tagged Kif5b tail fragment (900-935 aa), 907-909 RSK to AAA (UniProt Q61768); test: pull-down
[5] = molecular target: T1, GST-tagged Kif5b tail fragment (900-935 aa), 913-915 RRG to AAA (UniProt Q61768); test: pull-down
T1 sequence: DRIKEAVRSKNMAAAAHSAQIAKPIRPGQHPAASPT

Chains of the proteins cited; added tags and fusions are not shown. Residues count along the entry.
UniProt Q01097, residues 27-1482: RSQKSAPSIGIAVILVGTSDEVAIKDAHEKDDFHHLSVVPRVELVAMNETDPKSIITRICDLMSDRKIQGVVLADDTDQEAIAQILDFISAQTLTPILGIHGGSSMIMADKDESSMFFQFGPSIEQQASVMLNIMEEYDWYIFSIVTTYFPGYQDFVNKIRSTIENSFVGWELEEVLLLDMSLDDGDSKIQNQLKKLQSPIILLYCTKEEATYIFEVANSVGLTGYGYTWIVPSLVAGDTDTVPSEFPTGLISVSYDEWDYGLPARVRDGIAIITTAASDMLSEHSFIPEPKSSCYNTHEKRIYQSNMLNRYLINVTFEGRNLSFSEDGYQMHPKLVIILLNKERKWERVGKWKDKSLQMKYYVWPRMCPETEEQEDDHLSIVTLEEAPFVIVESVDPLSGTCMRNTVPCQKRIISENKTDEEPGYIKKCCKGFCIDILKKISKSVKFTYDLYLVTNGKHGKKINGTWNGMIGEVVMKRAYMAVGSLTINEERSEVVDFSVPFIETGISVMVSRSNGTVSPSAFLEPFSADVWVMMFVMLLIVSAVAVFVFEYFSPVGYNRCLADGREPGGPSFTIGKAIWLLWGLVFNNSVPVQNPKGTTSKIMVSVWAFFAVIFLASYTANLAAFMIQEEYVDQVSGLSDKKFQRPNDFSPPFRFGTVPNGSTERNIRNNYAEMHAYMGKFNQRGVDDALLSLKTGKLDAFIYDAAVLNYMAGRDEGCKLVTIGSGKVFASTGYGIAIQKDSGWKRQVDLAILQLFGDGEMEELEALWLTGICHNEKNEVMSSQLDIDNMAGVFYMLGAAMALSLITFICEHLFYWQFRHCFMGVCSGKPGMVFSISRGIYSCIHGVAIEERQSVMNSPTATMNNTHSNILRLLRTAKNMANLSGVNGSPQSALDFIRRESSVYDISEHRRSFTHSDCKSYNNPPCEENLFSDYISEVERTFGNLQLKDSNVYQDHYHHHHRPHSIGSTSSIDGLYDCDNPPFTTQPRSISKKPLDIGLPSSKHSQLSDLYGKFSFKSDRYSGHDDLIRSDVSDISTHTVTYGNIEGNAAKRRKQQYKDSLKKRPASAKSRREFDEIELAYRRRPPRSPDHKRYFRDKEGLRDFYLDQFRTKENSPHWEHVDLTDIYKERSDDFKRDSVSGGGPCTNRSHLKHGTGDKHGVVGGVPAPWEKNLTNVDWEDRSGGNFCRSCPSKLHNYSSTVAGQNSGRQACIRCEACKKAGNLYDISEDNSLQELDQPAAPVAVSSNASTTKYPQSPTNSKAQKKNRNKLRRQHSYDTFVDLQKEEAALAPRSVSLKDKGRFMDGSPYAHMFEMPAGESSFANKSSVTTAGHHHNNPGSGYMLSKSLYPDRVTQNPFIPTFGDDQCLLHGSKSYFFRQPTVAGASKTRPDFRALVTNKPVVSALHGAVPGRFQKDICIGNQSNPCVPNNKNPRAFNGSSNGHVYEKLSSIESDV

[6] = molecular target: GST-tagged Kif5b tail fragment (900-935 aa) (UniProt Q61768); test: pull-down
[7] = molecular target: T2, GST-tagged Kif5b tail fragment (900-935 aa), 913-915 RRG to SSS (UniProt Q61768); test: pull-down
T2 sequence: T1 sequence with A14S, A15S, A16S

[8] = molecular target: T3, GST-tagged Kif5b tail fragment (900-935 aa), 910-912 NMA to SSS (UniProt Q61768); test: pull-down
T3 sequence: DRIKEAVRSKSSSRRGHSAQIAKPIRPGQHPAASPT

[9] = molecular target: GST-tagged Kif5b tail fragment (900-935 aa), 910-912 NMA to AAA (UniProt Q61768); test: pull-down
[10] = molecular target: GST-tagged Kif5b tail fragment (900-935 aa), 907-909 RSK to SSS (UniProt Q61768); test: pull-down

binding [1] | binding [2] | binding [3] | binding [4] | binding [5] | binding [6] | binding [7] | binding [8] | binding [9] | binding [10] | Substance
binds | – | – | – | – | – | – | – | – | – | GluN2A NMDAR subunit (endogenous) (from UniProt P35436 23-1464) (receptor)
– | binds | – | – | – | – | – | – | – | – | Kif5b, the heavy chain of kinesin-1 (endogenous) (from UniProt Q61768 1-963)
binds | – | binds | no binding | no binding | binds | no binding | binds | binds | no binding | GluN2B NMDAR subunit (endogenous) (from UniProt Q01097 27-1482) (receptor)

— publication doi:10.1101/440800
